Library screen at single concentrations

Chains of the proteins cited; added tags and fusions are not shown.
UniProt P9WFT3, whole entry: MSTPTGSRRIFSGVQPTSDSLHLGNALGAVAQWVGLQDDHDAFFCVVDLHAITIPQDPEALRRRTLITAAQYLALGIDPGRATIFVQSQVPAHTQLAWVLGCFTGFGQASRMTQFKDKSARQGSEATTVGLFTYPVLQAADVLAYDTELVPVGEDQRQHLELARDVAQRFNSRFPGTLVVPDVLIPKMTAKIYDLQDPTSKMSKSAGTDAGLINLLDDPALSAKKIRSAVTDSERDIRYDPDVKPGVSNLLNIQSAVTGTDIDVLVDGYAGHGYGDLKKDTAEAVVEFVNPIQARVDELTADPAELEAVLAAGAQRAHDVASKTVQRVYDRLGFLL
UniProt I6X8D2, whole entry: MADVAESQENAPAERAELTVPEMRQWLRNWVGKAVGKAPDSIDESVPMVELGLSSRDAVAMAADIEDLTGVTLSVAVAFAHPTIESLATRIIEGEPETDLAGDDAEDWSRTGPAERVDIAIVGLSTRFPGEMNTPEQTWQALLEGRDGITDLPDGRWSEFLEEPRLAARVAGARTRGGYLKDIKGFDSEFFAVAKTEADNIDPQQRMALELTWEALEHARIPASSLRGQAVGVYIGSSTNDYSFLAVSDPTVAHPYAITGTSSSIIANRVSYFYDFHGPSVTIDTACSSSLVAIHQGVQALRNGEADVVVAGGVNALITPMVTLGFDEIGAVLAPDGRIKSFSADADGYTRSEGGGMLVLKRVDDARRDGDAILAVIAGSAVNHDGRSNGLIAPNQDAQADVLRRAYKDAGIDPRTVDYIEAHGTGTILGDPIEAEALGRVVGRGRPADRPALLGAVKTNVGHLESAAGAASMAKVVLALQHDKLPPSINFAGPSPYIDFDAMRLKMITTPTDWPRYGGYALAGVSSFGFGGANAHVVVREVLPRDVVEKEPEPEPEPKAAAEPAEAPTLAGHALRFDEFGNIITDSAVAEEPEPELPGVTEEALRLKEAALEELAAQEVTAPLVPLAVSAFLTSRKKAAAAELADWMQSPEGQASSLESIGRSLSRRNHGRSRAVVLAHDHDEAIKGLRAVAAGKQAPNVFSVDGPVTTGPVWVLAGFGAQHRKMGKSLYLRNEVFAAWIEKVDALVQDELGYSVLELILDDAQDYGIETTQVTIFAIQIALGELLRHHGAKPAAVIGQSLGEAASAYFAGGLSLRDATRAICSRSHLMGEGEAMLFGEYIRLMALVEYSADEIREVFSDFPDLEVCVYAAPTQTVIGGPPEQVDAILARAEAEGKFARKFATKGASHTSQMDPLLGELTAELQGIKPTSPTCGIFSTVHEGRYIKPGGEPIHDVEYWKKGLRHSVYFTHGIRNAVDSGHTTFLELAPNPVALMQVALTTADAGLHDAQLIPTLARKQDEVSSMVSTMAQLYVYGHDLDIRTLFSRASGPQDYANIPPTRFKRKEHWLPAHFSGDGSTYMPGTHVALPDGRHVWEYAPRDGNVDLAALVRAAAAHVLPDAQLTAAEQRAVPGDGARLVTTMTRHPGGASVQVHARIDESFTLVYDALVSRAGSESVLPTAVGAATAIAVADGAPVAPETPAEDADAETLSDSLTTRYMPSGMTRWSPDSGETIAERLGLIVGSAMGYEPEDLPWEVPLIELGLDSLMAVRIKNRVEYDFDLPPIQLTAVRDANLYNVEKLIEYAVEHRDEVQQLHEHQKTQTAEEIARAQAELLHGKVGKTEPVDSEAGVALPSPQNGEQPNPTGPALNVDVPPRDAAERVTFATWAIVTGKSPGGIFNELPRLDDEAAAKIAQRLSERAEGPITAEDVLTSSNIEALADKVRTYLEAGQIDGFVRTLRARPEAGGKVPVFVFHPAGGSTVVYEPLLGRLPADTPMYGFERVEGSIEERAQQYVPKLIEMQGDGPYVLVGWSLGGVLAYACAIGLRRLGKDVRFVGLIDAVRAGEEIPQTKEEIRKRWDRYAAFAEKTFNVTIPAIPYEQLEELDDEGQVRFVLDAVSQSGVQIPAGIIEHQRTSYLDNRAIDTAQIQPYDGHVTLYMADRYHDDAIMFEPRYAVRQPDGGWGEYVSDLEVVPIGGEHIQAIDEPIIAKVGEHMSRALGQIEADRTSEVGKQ

Measurements from “University of Dundee, Small-Polar-MMV Screening Library” (2021), ChEMBL document CHEMBL3988442.

Each number is a percent effect as filed. The record does not define 0% and 100%; most values in the screen are far below 50% and negative numbers occur (in some assays of this library far below -100). Compounds were drawn at random from those tested, without regard to their results. A dash means the value is not listed here; it may have been measured.

MtTrpRS: 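Tryptophan-tRNA ligase, Mycobacterium tuberculosis (UniProt P9WFT3). Enzyme assay of tryptophanyl-tRNA synthetase; the read-out is not stated. Concentration: 10 µM. Direction is not recorded; retested compounds ran higher, which suggests that high means inhibition. Size under these conditions: about 65,000 compounds, about 64 of them at 50% or above in at least one test.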
Pks13 thioesterase: 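Enzyme assay of the thioesterase domain of polyketide synthase 13; the read-out is not stated. Target: Polyketide synthase Pks13, Mycobacterium tuberculosis (UniProt I6X8D2). Tested at 30 µM. The record gives no direction; the compounds picked for IC50 retests had high values, so higher reads as stronger inhibition. Of about 67,000 compounds tested this way, about 300 (0.46%) reached 50% or more in at least one test.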

| Compound | MtTrpRS | Pks13 thioesterase |
|---|---|---|
| `O=C(c1ccncc1)N1CCCC(c2ncncc2-c2ccncc2)C1` (centres undefined) | - | 2.553 |
| `CN1CCN(C(=O)c2cc(-c3ccco3)cs2)CC1` | -0.9492 | -6.799 |
| `Cc1ccc(N2CCO[C@H]3CN(Cc4cccnc4)C[C@H]32)nn1` | 1.604 | -0.1535 |
| `Cc1cc(C)c2nc(CN3C[C@H](CCO)[C@@H](N)C3)cc(O)c2c1` | -4.374 | -3.844 |
| `CSCc1cc(F)ccc1CNC(=O)N1CCCC1` | 0.5415 | -26.45 |
| `COCCNC(=O)[C@H]1C[C@@H]2CCN(Cc3nccs3)C[C@H]2O1` | -4.033 | -13.35 |
| `Cc1ccc(NC(=O)c2n[nH]c(-n3cnnc3)n2)cc1C` | 6.231 | -12.41 |
| `O=S1(=O)NC(C2CCCN(S(=O)(=O)N3CCCC3)C2)=Nc2ccccc21` (centres undefined) | 2.285 | 5.328 |
| `CCn1c(CN2CCN(CCO)CC2)nc2c(F)cccc21` | -0.565 | -15.73 |
| `COCCN(C)c1ccc(NCc2cscn2)nc1` | 14.14 | 20.05 |
| `Cc1nn2c(N3CCC(O)C3)cc(-c3ccccc3)nc2c1C` (centres undefined) | -1.891 | -16.58 |
| `C[C@@H]1CN(C(=O)c2nc3sccn3c2-c2ncc[nH]2)C[C@H](C)O1` | -1.608 | -1.554 |
| `CNc1snc(C)c1C(=O)NC(C)CC(=O)c1cccs1` (centres undefined) | -1.584 | -1.745 |
| `Cn1cccc1C(=O)N1C[C@@H](OCc2cccnc2)[C@H]2OCCC[C@H]21` | -0.6975 | 9.02 |
| `Cc1[nH]c2c(F)cccc2c1CC(=O)NC1CCCCNC1=O` (centres undefined) | -0.1361 | -8.397 |
| `COCC1N(C(=O)Nc2ccccc2)[C@H]2CC[C@]1(O)CC2` (some centres undefined) | - | 22.05 |
| `CN(C)C1CCCN(C(=O)NCCC(=O)N2CCCCCC2)C1` (centres undefined) | -0.4461 | -18.59 |
| `O=C(C(CNCc1cccnc1)c1ccccc1)N1CCOCC1` (centres undefined) | -3.163 | -8.337 |
| `Cc1ccn(C)c(=O)c1NC(=O)N(C)Cc1cccc(OC(C)C)c1` | 1.232 | -12.69 |
| `O=C(C1CCOCC1)N1CC[C@H]2[C@H]1CCN2c1nncs1` | 1.402 | -28.64 |
| `Cc1nnc(NC(=O)c2cc(S(=O)(=O)N3CCSCC3)c[nH]2)s1` | 2.245 | -8.347 |
| `COCC(=O)N1CCn2c(Cn3cncn3)cnc2C1C` (centres undefined) | 4.344 | -7.82 |
| `Cc1cccc(C)c1Oc1ncccc1CNC(=O)C1(C)CCCNC1` (centres undefined) | 4.164 | -21.74 |
| `CC(Cn1cccn1)NC(=O)Nc1ccc(N2CCCC2)nc1` (centres undefined) | 7.11 | 0.4592 |
| `CCCN1CCCn2nc(CNC(=O)CN(C)C3CCCC3)cc2C1` | -3.64 | -28.92 |
| `Cc1ccc(CNC(=O)CN2CCOC(Cn3cccn3)C2)s1` (centres undefined) | -1.258 | -7.077 |
| `CC(C)Oc1cc(N2CC[C@@H](N3CCOCC3)[C@H](O)C2)nc(N)n1` | -1.385 | -31.38 |
| `Cn1nc(CN2CCCN(C3CCCC3)CC2)c2c(Cl)cccc21` | 4.378 | -28.39 |
| `OC(CNc1ccc(Cl)cn1)CN1CCOCC1` (centres undefined) | 1.821 | -17.67 |
| `CC(C)[C@H]1CN(Cc2ccccc2C#N)C[C@@H]1NC(=O)C1CCOCC1` | -2.091 | -36.07 |
| `CC1CCCCN1c1nc2c(c(=O)[nH]1)CCN(Cc1ccc(O)cc1)C2` (centres undefined) | - | -4.459 |
| `Cc1ncc2c(n1)C1(CCN(C(=O)C3CC3)CC1)OCC2` | 1.055 | 14.22 |
| `COCC(=O)N(C)Cc1nc(N(C)C)ncc1-c1ccncc1` | 1.953 | 5.292 |
| `O=C(NCc1ccccc1Cn1ccnc1)N1CCSCC1` | -1.018 | - |
| `CC(C)(C)c1cnc(CN2CCC[C@H]2CO)o1` | 4.396 | -17.85 |
| `Cc1cc(C)n(CC2CCCCN2CC(=O)N(C)Cc2ccco2)n1` (centres undefined) | 4.15 | -14.49 |
| `COCCN1CCN(CC(=O)NC2(C#N)CCCC2)CC1` | -0.8738 | -27.32 |
| `Cc1cnn(C2CCCN(C(=O)c3cccc4c3OCO4)C2)c1` (centres undefined) | -2.224 | -24.09 |
| `COCc1noc(-c2ccc(N(C)Cc3ccc(C)o3)nc2)n1` | -1.377 | 69.57 |
| `CCCc1nc(N2CCN(CC)CC2)c2c(n1)c(C)nn2CC` | 3.728 | -18.6 |
| `Cc1occc1C(=O)N1CC[C@@H]2[C@@H](CO[C@H]2CNS(C)(=O)=O)C1` | 3.743 | -31.66 |
| `O=C(c1ccccn1)C1CCCN(c2nccc(CCC(F)(F)F)n2)C1` (centres undefined) | 0.9226 | -33.94 |
| `CC(Nc1cnn(C)c(=O)c1Cl)c1ccc(F)cc1` (centres undefined) | 0.4068 | -8.284 |
| `O=C(Nc1cnn(CCN2CCOCC2)c1)c1ccccn1` | -0.7862 | -6.313 |
| `CC(=O)NCc1nc(CC(C)C)nn1-c1cccc(C)c1` | -1.154 | -14.33 |
| `CNc1nc2c(s1)C(c1ccccc1Cl)CC(=O)N2` (centres undefined) | 9.22 | -8.665 |
| `CS(=O)(=O)N1CC[C@@H]2[C@@H]1CCN2Cc1ccc2c(c1)OCO2` | 7.195 | -22.73 |
| `c1cc(CCNc2ccc(CC3CCNC3)cn2)ccn1` (centres undefined) | 3.473 | -3.313 |
| `O=C(Nc1cccnc1)[C@H]1CN(Cc2cccs2)C[C@H]2OCC[C@@H]12` | -4.661 | 3.144 |

4 of the entries, repeated:

{"compound": "COCCNC(=O)[C@H]1C[C@@H]2CCN(Cc3nccs3)C[C@H]2O1", "MtTrpRS": -4.033, "Pks13 thioesterase": -13.35}
{"compound": "OC(CNc1ccc(Cl)cn1)CN1CCOCC1", "stereo": "centres undefined", "MtTrpRS": 1.821, "Pks13 thioesterase": -17.67}
{"compound": "Cc1cccc(C)c1Oc1ncccc1CNC(=O)C1(C)CCCNC1", "stereo": "centres undefined", "MtTrpRS": 4.164, "Pks13 thioesterase": -21.74}
{"compound": "Cc1cc(C)c2nc(CN3C[C@H](CCO)[C@@H](N)C3)cc(O)c2c1", "MtTrpRS": -4.374, "Pks13 thioesterase": -3.844}